These are yes or no findings as the source states them, for the method shown. In cells and extracts the contact can be indirect. Binding can be weak; no strength is given.
Key:
[1] = biological target: Rho-binding domain of human Rhotekin fused to GST (human) (UniProt Q9BST9); experiment: pull-down; GST-Rhotekin-RBD on agarose beads; lysates of thrombin-treated BCEC pre-treated with cell-permeable C3-transferase for 3 hours at 37°C; bound RhoA detected by immunoblot with anti-RhoA; only the target purified
[2] = biological target: Rho-binding domain of human Rhotekin fused to GST (human) (UniProt Q9BST9); experiment: pull-down; GST-Rhotekin-RBD on agarose beads; freshly prepared BCEC lysates before and 0.5-15 min after thrombin (2 U/ml); in vitro GTPgammaS-loaded RhoA as positive control; bound RhoA detected by immunoblot with anti-RhoA; only the target purified

By UniProt entry, the sequences of proteins in these tests, tags left out. Where a name states a change or a piece, a line headed by the entry shows the natural chain unless it says otherwise.
UniProt Q9BST9: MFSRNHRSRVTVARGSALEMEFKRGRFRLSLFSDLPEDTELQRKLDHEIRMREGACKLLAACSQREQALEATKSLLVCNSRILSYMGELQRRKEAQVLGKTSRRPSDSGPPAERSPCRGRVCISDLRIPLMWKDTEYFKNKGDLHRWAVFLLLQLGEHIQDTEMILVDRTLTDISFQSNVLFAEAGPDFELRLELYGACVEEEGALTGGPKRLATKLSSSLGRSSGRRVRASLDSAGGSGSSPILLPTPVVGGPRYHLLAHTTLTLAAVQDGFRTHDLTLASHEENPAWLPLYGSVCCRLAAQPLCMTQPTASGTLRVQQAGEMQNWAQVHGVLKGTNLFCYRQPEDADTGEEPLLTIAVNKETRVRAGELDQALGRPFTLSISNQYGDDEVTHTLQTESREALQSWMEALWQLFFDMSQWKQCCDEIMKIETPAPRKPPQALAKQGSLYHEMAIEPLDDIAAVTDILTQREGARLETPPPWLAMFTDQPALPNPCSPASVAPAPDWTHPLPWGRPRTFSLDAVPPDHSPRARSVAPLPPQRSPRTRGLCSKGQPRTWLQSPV
UniProt P61585: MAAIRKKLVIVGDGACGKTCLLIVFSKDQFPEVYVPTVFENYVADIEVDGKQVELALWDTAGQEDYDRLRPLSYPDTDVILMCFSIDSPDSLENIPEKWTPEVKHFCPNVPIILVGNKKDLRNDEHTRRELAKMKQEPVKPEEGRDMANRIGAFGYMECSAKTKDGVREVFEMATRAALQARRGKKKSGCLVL

Substance: RhoA (from UniProt P61585 1-193)
- binding [1]: binds weakly
- binding [2]: binds

Reference: paper PMC3408431
